The record followed here is PubChem BioAssay AID2003 (Broad Institute, 2009).

The other results are listed elsewhere or left out. Entries with a potency or affinity are not part of this list. The source made no clear call on entries shown without one.

A short description of the test: PubChem AID 2003. The settings on record: H4 cells, SNCA 5'UTR luciferase reporter, luminescence; at 12 µM (top of the series) unless noted. For orientation: In a reporter assay the amount or activity of a reporter protein is the signal.
Take `Cc1cccc(Nc2nc3c(s2)CCCC3)c1`: the activation is 113%.

Regarding `CCOC(=O)c1sc2nc(NC(=O)C(C)(C)C)sc2c1C`, the activation turned out to be 75.1%.

On to `CC(C)c1ccc(NC(=O)C2CC3CCC2C3)cc1` (stereo unspecified), for which the activation worked out at 61%.

As to `CCN(CC)CCCNc1nc2ccccc2c2nc(-c3ccncc3)nn12`, the activation is 1.1%.

For the compound `CC(C)Cc1ccc(/C=C/C(=O)N2CCOCC2)cc1`, the activation is 35.4%.

With `CN1C(=C2C(=O)OC(C)(C)OC2=O)Sc2ccccc21`, the activation came out at 23.5%.

Consider `CC(C)C/C=C1\CCc2c([nH]c3ccccc23)C1=O`, for which the activation amounted to 114%.

On to `Cn1c(SCc2ccccc2)nnc1-c1ccc2c(c1)OCO2`, for which the activation worked out at 73.2%.

Regarding `Cc1csc2nc(CSc3nc4ccccc4o3)c(Br)n12`, the activation is 76.1%.

With `O=C(NCc1ccccc1)c1c[nH]c2cc3c(cc2c1=O)OCCO3`, the activation was 54.1%.

With `O=C(c1cccc(COc2ccc(Cl)cc2Cl)c1)N1CCN(c2ccccn2)CC1`, the activation is 22.5%.

As for `Cc1ccc(-n2c(C)cc(C(=O)CSc3nncs3)c2C)cc1`, the activation was determined as 40.9%.

As to `CCCCNc1ncnc2c1cnn2-c1ccccc1`, the activation is -24.3%.

Turning to `O=[N+]([O-])c1nn(-c2ccc3c(c2)OCCO3)n(O)c1=NCCC1=CCCCC1`, the activation was 42.3%.

For `O=C(CCN1C(=O)S/C(=C\C=C\c2ccccc2)C1=O)Nc1ccc(O)cc1`, the activation was found to be 121%.

`Cc1ccc(N=c2sc(C)c(C)n2C)cc1`: the activation came to 48.9%.

For `FC(F)Oc1ccc(N=C2SCC3CCCCN23)cc1` (stereo unspecified), the activation turned out to be 52.4%.

With `CC(=O)c1ccc(Oc2ncnc3sccc23)cc1`, the activation stood at 43.1%.

With `O=[N+]([O-])c1ccccc1-c1nc(-c2ccc(Br)o2)no1`, the activation is 81.3%.

For the compound `Oc1ccc(/C=N/Nc2cccc3cccnc23)c(O)c1`, the activation was found to be 156%.

In the case of `O=C(CCSc1ccc(Cl)cc1)N1CCCCCC1`, the activation came out at 44%.

For `COc1cc2ccccc2cc1C(=O)Nc1ccc(N2CCN(C)CC2)cc1`, the activation is -1%.

`O=C(COC(=O)/C=C/c1ccccc1[N+](=O)[O-])Nc1ccc(OCc2ccccc2)cc1`: the activation came out at 4.2%.

For `COc1ccc(-c2ccc(-c3nnn(CC(C)=O)n3)cc2)cc1`, the activation is 88.3%.

Take `CC(C)c1nc2oc3ccccc3c(=O)c2c(=O)n1-c1ccccc1`: the activation is 78.1%.

As to `Cc1ccc(Nc2nc(=O)c3cccnc3s2)cc1`, the activation was found to be 83.1%.

On to `O=C(NCCS(=O)(=O)NCCc1ccccc1)c1ccc2c(c1)OCO2`, for which the activation stood at 38.9%.

Regarding `O=C(CCC1CCCC1)Nc1ccc(Br)cn1`, the activation was 73.1%.

As for `CN(C)c1ccc(NC(=S)NC23CC4CC(CC(C4)C2)C3)cc1`, the activation came to 63.9%.

`CCOc1ccc(C(=O)CSc2nnc3ccccn23)cc1`: the activation was determined as 64.5%.

For the compound `N#C/C(=C\C=C\c1ccccc1[N+](=O)[O-])C(=O)NCc1ccccc1`, the activation amounted to 54.4%.

For `Brc1ccc2oc(-c3ccn[nH]3)cc2c1`, the activation turned out to be 40.9%.

`CCN=c1scc(C)n1/N=C/c1ccsc1`: the activation is 87.2%.

Regarding `Cc1c(-c2nc(-c3ccc(C(F)(F)F)cc3)no2)n(C)oc1=O`, the activation is 69.8%.

Regarding `O=C1CC(c2ccccc2)Sc2nc3ccccc3n21` (stereo unspecified), the activation amounted to 59.6%.

On to `CC(=O)N1N=C(c2ccc(C)cc2)OC1c1ccc(C(C)C)cc1` (stereo unspecified), for which the activation stood at 73.7%.

Turning to `C[C@@H]1C[C@@H]2O[C@H]2/C=C\C=C\C(=O)Cc2c(Cl)c(O)cc(O)c2C(=O)O1`, the activation worked out at 29.4%.

On to `COc1ccc(S(=O)(=O)n2ccc(-c3cnc(-c4ccccc4)s3)n2)cc1`, for which the activation came out at 59.1%.

Turning to `C/C(NC(=O)c1cccc(F)c1)=C1/C(=O)C[C@@H]2[C@H]1C2(C)C`, the activation came out at 101%.

As to `O=c1c(-c2cc3ccccc3o2)[n+]([O-])c2ccccc2n1OCc1ccccn1`, the activation was found to be 150%.

As to `C/C(=N\OC(=O)c1ccccc1)c1cc(-c2ccc(Cl)cc2)no1`, the activation was 106%.

Consider `CN1c2ccsc2/C(=N/Nc2ccc(F)cc2)CS1(=O)=O`, for which the activation worked out at 83.6%.

For `CCOc1c(OC(C)=O)ccc(/C=C/c2ccc3cccc(OC(C)=O)c3n2)c1[N+](=O)[O-]`, the activation came to 56.4%.

In the case of `S=C(c1ccc(-c2ccc(Cl)cc2Cl)o1)N1CCCCC1`, the activation was determined as 175%.

For `O=C(Nc1cccc(F)c1)Nc1ccc2c(c1)CCC2`, the activation worked out at 57.1%.

`COc1cc(NC(=O)c2cc3nc(C)cc(C)n3n2)c(OC)cc1Cl`: the activation was 126%.

For the compound `O=C(Nc1ccccc1OC(=O)c1ccc(Cl)cc1)c1ccc(Cl)cc1`, the activation stood at 114%.

For `Cc1ccc(S(=O)(=O)/N=C(/NC(=S)Nc2ccccc2)c2ccccc2)cc1`, the activation amounted to 80.7%.

On to `O=C(O)CCCN1C(=O)/C(=C\C(Cl)=C\c2ccccc2)SC1=S`, for which the activation was -11.1%.

Turning to `Cc1ccc2nc(-c3ccc(NS(=O)(=O)c4c(C)n(C)c(=O)n(C)c4=O)cc3)sc2c1`, the activation was found to be 71.4%.

In the case of `CCN(CC)C(=O)N1c2ccccc2C=Cc2ccccc21`, the activation was -38.2%.

Turning to `O=C(Nc1nc(=O)c2ccccc2s1)c1ccc(F)cc1`, the activation turned out to be 79.1%.

Consider `Cc1cc(/C=N/NC(=O)c2cccc(F)c2)c(C)n1-c1ccccc1`, for which the activation was determined as 112%.

Regarding `O=C(Nc1ccccc1)C(=O)Nc1ccc2c(c1)N(C(=O)C1CC1)CCC2`, the activation was 30.8%.

Turning to `Cc1ccc(-c2csc(NC(=O)C3=COCCO3)n2)cc1C`, the activation is 146%.

`Cc1nc(N)sc1N=Nc1ccc(Br)cc1`: the activation was 64.2%.

As to `O=C(NCCc1ccccc1)C1=COCCO1`, the activation is 21.7%.

Regarding `Fc1ccc(/C=C\c2nccc3c2[nH]c2ccccc23)cc1`, the activation turned out to be 30.8%.

In the case of `O=C(Nc1ccc2c(c1)oc1ccccc12)N1CCOCC1`, the activation amounted to 69.6%.

For `O=C(NC1CCCCC1)C(=S)NC1CCCCC1`, the activation stood at 62.4%.

As to `O=C(Nc1ccc(-c2nc3ccccc3s2)c(OC(=O)c2ccccc2)c1)c1ccccc1`, the activation turned out to be 106%.

`CCCC1CCC(c2ccc(OCC)cc2)=CC1=O` (stereo unspecified): the activation turned out to be 38.5%.

For `COc1ccc(-c2cc3n(n2)CCc2nc4ccccc4n2-3)cc1`, the activation turned out to be 61.2%.

`Cc1c2cnn(CC(=O)NC3CCCC3)c(=O)c2c(C)n1Cc1ccccc1`: the activation worked out at 24.3%.

With `Cc1cc(/C=C(\C#N)C(=O)NC2CC2)c(C)[nH]1`, the activation turned out to be 71.8%.

Regarding `O=C(Nc1ccc2oc(=O)ccc2c1)c1cc2ccccc2o1`, the activation came out at 101%.

For the compound `CN1CCSc2ccc(C(=O)Nc3ccc(Cl)cc3)cc21`, the activation came to 96.5%.

For the compound `O=C(Nc1ccccc1)Nc1ccc(-n2ccc(C(F)(F)F)n2)cc1`, the activation amounted to 104%.

For `Cc1occc1C(=O)N=Nc1c(O)n(C)c2ccccc12`, the activation was -25.4%.

For the compound `CN(C)/C=N/c1ncnc2c1cnn2-c1ccc(C(F)(F)F)cn1`, the activation is 76.5%.

As for `CC(/C=N/NC(=O)c1cccc(F)c1)=C\c1ccccc1`, the activation amounted to 23.1%.

For the compound `Cc1ccc(C(=O)NNc2ncnc3ccccc23)cc1`, the activation stood at 66.3%.

As to `COc1ccc2c(c1)CC/C2=N\OC(=O)c1cccc(C)c1`, the activation is 73%.

In the case of `COc1ccc(NC(=S)Nc2cc(C)ccn2)c(OC)c1`, the activation was 109%.

For the compound `Fc1ccc2nc(Nc3nc4c(s3)CCCC4)sc2c1`, the activation is 88.2%.

Consider `N=c1oc2c3c4c(cc2cc1C(=O)Nc1ccccc1)CCCN4CCC3`, for which the activation came out at 183%.

On to `COc1cc(OC)cc(C(=O)Oc2ccc(/C=N/Nc3nc4ccccc4s3)cc2OC)c1`, for which the activation worked out at 90.5%.

Consider `Cc1c(C(=O)NCc2ccoc2)oc2ccc3c(c12)C(=O)CC(C)(C)O3`, for which the activation was found to be 31.4%.

Regarding `Cc1cccc(N(C)C(=O)c2cc3cc4ccc(C)cc4nc3o2)c1`, the activation worked out at 16%.

Consider `O=C(/C=C/c1cnc2ccccc2n1)NC12CC3CC(CC(C3)C1)C2`, for which the activation stood at 65.7%.

On to `O=C(Nc1ccc(Br)cc1)c1cnc[nH]1`, for which the activation was 67.8%.

Turning to `CCC1=[N+](CC(=O)c2ccc(C)cc2)CCn2c(C)ccc21`, the activation was 84.3%.

For `CCc1ccc(-c2ccc(C(=O)C(F)(F)F)[nH]2)cc1`, the activation is 66.1%.

With `Cc1cc(=O)n2nc(-c3ccc(C(F)(F)F)cc3)sc2n1`, the activation is 37.2%.

As to `Cc1c(C(=O)/C=C/c2cccs2)oc2ccc(F)cc12`, the activation came to 82.7%.

For `CCSc1ncc(/C=N/Nc2ccc([N+](=O)[O-])cc2)n1C`, the activation amounted to 164% [at 6 µM].

In the case of `COc1ccc(NC(=O)NC(=O)c2ccccc2)cc1`, the activation is 34.1%.

As for `Cc1[nH]c2ccccc2c1C(=O)CSc1nc2ccccc2c(=O)n1CCCN1CCOCC1`, the activation is -78.4%.

For `O=C(NCCc1ccccc1)c1ccc(Cl)nc1`, the activation worked out at 3.3%.

Regarding `CC1CCCN(C(=O)CSc2cnc3ccccc3n2)C1` (stereo unspecified), the activation amounted to 31.4%.

As to `Nc1ncn([C@H]2C[C@H](O)[C@@H](CO)O2)c(=O)n1`, the activation was determined as 256%.

For `COc1ccc(N/C=C\C(=O)c2ccc3c(c2)OCO3)cc1`, the activation is 37.2%.

Take `CCOC(=O)c1c(C)[nH]c(C2=NNC(=NC(C)COC)SC2)c1C` (stereo unspecified): the activation was 7.5%.

Consider `CCOC(=O)N/N=C1\CCc2ccccc21`, for which the activation was determined as 46.5%.

With `CN(C)c1ccc(N=Cc2nc(-c3ccccc3)oc2OC(=O)c2cccc(Br)c2)cc1`, the activation stood at 120%.

As for `COc1ccccc1C(=O)COC(=O)c1ccc(N(C)C)cc1`, the activation turned out to be 65.6%.

In the case of `Cc1ccc(/C=N/N=C/c2ccc(C)s2)s1`, the activation amounted to 41.6%.

With `CC(C)c1ccc(C(=O)NNC(=O)C2C3CCC(C3)C2C(=O)O)cc1` (stereo unspecified), the activation was determined as 166% [at 6 µM].

Regarding `CC(C)(C)c1ccc(OCCn2ccccc2=O)cc1`, the activation worked out at 42%.

`COc1cc(/C=C2/C(=N)N3N=C(CC(=O)N4CCOCC4)SC3=NC2=O)ccc1OCc1ccccc1`: the activation is 45.3%.

Turning to `CCOC(=O)c1cc(-c2ccc3c(c2)OCCO3)n[nH]1`, the activation came out at 34.9%.

`O=c1cccc2n1Cc1cc3ccccc3nc1-2`: the activation came to 94%.

Consider `O=c1n(-c2ccc(Br)cc2)cnn1-c1ncccc1[N+](=O)[O-]`, for which the activation was found to be 69.8%.

On to `O=[N+]([O-])c1ccccc1N/N=C1\CCc2ccccc21`, for which the activation worked out at 109%.

As to `O=C(CSc1ccc(-c2ccccc2)nn1)N1CCCCC1`, the activation worked out at 55.9%.

As to `O=C(Nc1ccc2cn[nH]c2c1)c1ccccc1F`, the activation is 40.7%.

Take `Cc1nc2ccccc2c(=O)n1NC(=O)/C=C/c1ccccc1Cl`: the activation was 71.1%.

As for `O=C(NC(=S)Nc1nc2c(s1)CCCC2)c1ccccc1`, the activation is 151% [at 6 µM].

`Fc1ccc(CSc2nnc(-c3ccccn3)o2)cc1`: the activation is 47%.

In the case of `Clc1ccc(-c2cn3c(n2)CCC3)cc1`, the activation turned out to be 51.2%.

Regarding `Nc1nn(-c2cccc(F)n2)cc1-c1ccccc1`, the activation turned out to be 31%.

In the case of `O=C(O)c1ccc(N/N=C/C(Br)=C/c2ccccc2)cc1`, the activation was found to be 160%.

As to `Oc1ccc(/C=N/Nc2ccc(C(F)(F)F)cn2)cc1`, the activation is 161%.

As to `Cc1ccc(-c2nc(N/N=C/c3ccccc3[N+](=O)[O-])c3ccccc3n2)cc1`, the activation was 61.9%.

For the compound `O=C1C2C3CCC(C3)C2C(=O)N1c1ccc(OS(=O)(=O)c2ccccc2)cc1` (stereo unspecified), the activation stood at 73.3%.

Take `C=CCSc1nnc2c(n1)[nH]c1c(C)cccc12`: the activation is 71.3%.
